For one substance, binding results are on record in paper PMC11189558, “Mutations found in cancer patients compromise DNA binding of the winged helix protein STK19”.

Protein sequences, listed by entry. Tags and fused reporters are not part of them. Lines headed by an entry give the natural chain unless they say otherwise; changes in a name come on top. Chains listed by the source or under a name are the forms on record and can include a tag or linker. Residues count along the entry.
human STK19 (residues 31-254) C116S/C136S/C240S (P49842-4, form named): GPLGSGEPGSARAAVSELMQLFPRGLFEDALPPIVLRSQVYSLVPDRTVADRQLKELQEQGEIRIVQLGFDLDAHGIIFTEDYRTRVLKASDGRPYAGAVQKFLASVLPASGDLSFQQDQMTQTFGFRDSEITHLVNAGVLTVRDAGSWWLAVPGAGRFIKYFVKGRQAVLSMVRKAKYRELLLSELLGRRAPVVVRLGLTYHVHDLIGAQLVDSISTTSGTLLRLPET

No constants are given. Whether binding was seen depends on the method and setting.

The target of the assay is human STK19 (residues 31-254) C116S/C136S/C240S (human) (UniProt P49842). The assay can be described thus: SEC; gel filtration profiles of the C116S/C136S/C240S protein compared with the wild-type protein; both purified.

Regarding “human STK19 (residues 31-254) C116S/C136S/C240S (from UniProt P49842-4 31-254) (domain or fragment)”, the binding entry is reported as “no binding”.
